# PubChem BioAssay AID493246 | Drosophila RNAi Screening Center | 2011
# Purpose: 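Genome-wide search for dsRNAs that reduce cell number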 (primary screen)
# Cells: Drosophila Kc and S2R+ cells
# Reagent: long dsRNA against Drosophila genes
# Measurement: 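Cell number per well after knock-down, printed as raw plate values; calls were based on per-plate z-scores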
# Reading the numbers: Kc cell number and S2R+ cell number: higher = more cells remaining
# Rule for the call: 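Active when the per-plate z-score of cell number is 3 or more in the direction of fewer cells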
# The deposit covers about 21,000 reagents; this is an unselected part of those that have a named target and a result. Of all reagents, 429 (2%) are marked active. 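Values are raw and not normalised between plates; calls rest on per-plate z-scores that were not deposited.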 Entries without a mark were called inactive. Reagent sequences are not shown. Not stated in the record: the amount of reagent, the time to read-out.
Target gene,amplicon,"Kc cell number, rep 1","Kc cell number, rep 2","S2R+ cell number, rep 1","S2R+ cell number, rep 2"
CG31510,DRSC14182,1.42e6,1.49e6,9.01e5,1.01e6
CG10927,DRSC06014,1.44e6,1.54e6,1.36e6,1.28e6
CG33080,DRSC18080,1.52e6,1.50e6,1.00e6,1.11e6
CG33080,DRSC18081,1.64e6,1.62e6,1.02e6,1.20e6
CG33080,DRSC18285,1.70e6,1.67e6,1.08e6,1.18e6
CG3701 (retired record),DRSC04408,1.63e6,1.67e6,1.34e6,1.35e6
CG3701 (retired record),DRSC04409,1.67e6,1.63e6,1.29e6,1.33e6
CG7227,DRSC03032,1.24e6,1.28e6,5.65e5,7.90e5
Mpp6,DRSC03169,1.49e6,1.68e6,1.34e6,3.42e5
CREG,DRSC16595,1.23e6,1.28e6,1.18e6,1.38e6
CG6398,DRSC19992,1.47e6,1.53e6,1.07e6,1.18e6
CG7745,DRSC07037,9.97e5 (active),1.12e6,3.80e5,4.62e5
CG34249 (retired record),DRSC09431,1.37e6,1.48e6,1.03e6,1.24e6
Orc4,DRSC04634,1.25e6,1.35e6,8.90e5,8.74e5
CG30377,DRSC06477,1.54e6,1.50e6,1.16e6,1.19e6
CG30377,DRSC06799,1.47e6,1.55e6,1.07e6,1.20e6
CG15653,DRSC04244,1.77e6,1.91e6,1.19e6,3.18e5
CG4000,DRSC15535,1.34e6,1.30e6,9.61e5,1.10e6
ProtA,DRSC03372,1.51e6,1.61e6,1.32e6,1.45e6
hog,DRSC19057,1.28e6,1.47e6,1.10e6,1.21e6
CG3792,DRSC02725,1.45e6,1.46e6,1.24e6,1.37e6
CG16800,DRSC02518,1.55e6,1.58e6,1.30e6,1.45e6
CG1631,DRSC20535,1.39e6,1.45e6,1.06e6,1.15e6
Ccp84Aa,DRSC12586,1.40e6,1.58e6,1.22e6,1.29e6
mRpS26,DRSC10823,1.17e6,1.25e6,1.17e6,1.30e6
SREBP,DRSC11182,6.08e5 (active),7.13e5,9.24e5,1.05e6
CG14313,DRSC14792,1.27e6,1.37e6,1.05e6,1.10e6
CG5498,DRSC11608,1.46e6,1.47e6,1.27e6,1.28e6
MED18,DRSC18549,1.64e6,1.64e6,1.04e6,1.20e6
Patr-1,DRSC14159,1.35e6,1.44e6,1.01e6,1.07e6
CG1806,DRSC19787,5.90e5,,8.61e5,
RpLP2,DRSC07539,1.17e6 (active),1.30e6,6.65e5,7.62e5
Liprin-beta,DRSC09795,1.33e6,1.40e6,1.26e6,1.34e6
LUBEL,DRSC02141,1.53e6,1.47e6,1.08e6,1.17e6
sei,DRSC04713,1.31e6,1.32e6,1.11e6,1.17e6
beat-IIIc,DRSC02438,1.87e6,1.88e6,1.42e6,1.56e6
beat-IIIc,DRSC02949,1.58e6,1.74e6,1.17e6,1.34e6
Rab5,DRSC00777,1.24e6,1.34e6,9.48e5,9.59e5
CG18249,DRSC15318,1.56e6,1.62e6,1.18e6,1.28e6
m-cup,DRSC14430,1.29e6,1.33e6,1.09e6,1.27e6
Cyp6a8,DRSC07384,1.38e6,1.54e6,1.13e6,1.02e6
CG9426,DRSC03219,1.57e6,1.56e6,1.09e6,1.26e6
gt,DRSC18782,1.28e6,1.55e6,7.70e5,8.12e5
Sulf1,DRSC16874,1.32e6,1.42e6,1.17e6,1.31e6
CG10472,DRSC09730,1.37e6,1.43e6,1.28e6,1.16e6
Egfr,DRSC03871,6.42e5,,9.05e5,
Egfr,DRSC04613,1.30e6,1.42e6,1.15e6,1.22e6
CG34459,DRSC06973,1.62e6,1.64e6,1.14e6,1.24e6
Elp2,DRSC06095,1.55e6,1.60e6,1.23e6,1.23e6
CG3955,DRSC06859,1.25e6,1.34e6,1.01e6,1.02e6
Cth,DRSC07422,1.49e6,1.50e6,1.12e6,1.11e6
Mob4,DRSC04993,1.35e6,1.43e6,1.21e6,1.18e6
CG11841,DRSC14399,5.26e5,,8.48e5,
Vago,DRSC19833,1.64e6,1.52e6,1.15e6,1.24e6
CG8708,DRSC07240,1.51e6,1.56e6,1.12e6,1.15e6
CG2915,DRSC06842,1.31e6,1.40e6,1.04e6,1.10e6
Cpr76Bc,DRSC11062,1.51e6,1.67e6,1.39e6,1.48e6
ND-51,DRSC03145,1.10e6,1.19e6,4.00e5,6.34e5
CG7402,DRSC10839,1.48e6,1.67e6,1.25e6,1.36e6
CG42674,DRSC10067,1.65e6,1.85e6,1.22e6,1.36e6
CG42674,DRSC10811,1.75e6,1.68e6,1.41e6,1.57e6
mip120,DRSC06960,1.60e6,1.69e6,1.38e6,1.39e6
Cyp313a1,DRSC16624,1.41e6,1.38e6,1.12e6,1.26e6
Acp26Aa,DRSC01855,1.49e6,1.40e6,1.07e6,1.27e6
fos28F (retired record),DRSC03391,1.59e6,1.71e6,1.28e6,1.40e6
FarO,DRSC18475,1.58e6,1.58e6,1.11e6,1.27e6
CG2747,DRSC15450,1.44e6,1.57e6,1.26e6,1.31e6
chinmo,DRSC00292,1.55e6,1.47e6,9.16e5,1.06e6
chinmo,DRSC00485,1.60e6,1.68e6,1.07e6,1.19e6
chinmo,DRSC00509,1.44e6,1.58e6,8.36e5,9.89e5
CG15432,DRSC00447,1.49e6,1.48e6,1.06e6,1.24e6
Arl6,DRSC07031,1.46e6,1.58e6,1.19e6,1.26e6
CG1902,DRSC06798,1.46e6,1.49e6,1.09e6,1.15e6
p115,DRSC18813,1.46e6,1.44e6,1.01e6,1.17e6
CG11883,DRSC06094,1.40e6,1.42e6,1.20e6,1.21e6

Hits, of those listed so far:
Target gene,amplicon,"Kc cell number, rep 1","Kc cell number, rep 2","S2R+ cell number, rep 1","S2R+ cell number, rep 2"
CG7745,DRSC07037,9.97e5 (active),1.12e6,3.80e5,4.62e5
SREBP,DRSC11182,6.08e5 (active),7.13e5,9.24e5,1.05e6
RpLP2,DRSC07539,1.17e6 (active),1.30e6,6.65e5,7.62e5
